Results: PubChem BioAssay AID720537 (National Center for Advancing Translational Sciences (NCATS), 2013)
What follows is the remainder of the data, with few or none of the hits. Inconclusive results are not listed. Calls of active or inactive are those of the source. Calls come from the whole dose curve; as a rule, active = well fitted inhibition curve with a large enough effect; inconclusive = small, poorly fitted or top-dose-only effect; inactive = no such curve, though single readings can be large or run the other way.

Assay: qHTS for Inhibitors of TGF-b: Hit Validation in HepG2 Cells using COP promoter;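 note: 0% = TGF-beta stimulated DMSO wells and -100% = unstimulated cell wells; nearly all actives have a fitted effect of over 70% in size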
Conditions: HepG2 COP-GFP TGF-b reporter, GFP fluorescence, 18 h, cells stimulated by added recombinant TGF-beta; at 46.1 µM (top of the series)
Excerpt: TGF-b is a main component in the TGF-b signaling pathway which plays diverse roles in cellular and development pathways. TGF-b is the mediated by the transcription factors Smads. Although the Smad-dependent pathway is the primary canonical TGF-b signaling node, TGF-b1 can also activate alternative signaling pathways, including those involving MAPK (ERK, JNK and p38). This interaction may mediate or enhance Smad-dependent responses, or can exert Smad-independent effects. The complexity of this signaling cascade allows the TGF-b superfamily to perform unique, overlapping or redundant functions. […] We aim to identify Smad3-small molecule antagonists using a quantitative high throughput screening (qHTS) approach. […]
Suspensions of trypsinized HEPG2 COP-GFP cells were dispensed into white, tissue culture-treated, solid 1536-well plates at 5uL/well (1000 cells/well final concentration) in DMEM medium supplemented with 1% FBS. […] The plates were measured on an Acumen eX3 Explorer plate reader for GFP fluorescence (ex488/em500-530). GFP values were calculated by determining the mean GFP fluorescence of individual cells, and compiling these values for each well to determine a total well GFP signal. The %Activity was determined from the corrected fluorescence values. […] Concentration-response curves were fitted to the signals arising from the resulting fluorescence. […]

SMILES | activity, negative = inhibition
COc1cc2c(c(OC)c1OC)-c1ccc(OC)c(=O)cc1C(N)CC2 (stereo unspecified) | inactive: -22%
